From the supplement of paper PMC10735217
Where a name gives a salt, the structure may show the parent alone. The list shows a part of the results. Repeats in this data set agree poorly, so a single value says little.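 In a drug-repurposing library screen, luminescence reads luciferase driven by eight TEAD-binding elements, stably integrated into human kidney-derived cells. Compounds scoring over five robust Z scores above the plate mean are called hits.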

Tested on: HEK293A TEAD-LUC reporter
Assay: TEAD-luciferase reporter activity (YAP activation), robust Z score vs plate; higher = stronger YAP/TEAD activation
Details: 24 h

Row | Compound | TEAD-luciferase reporter activity (compound concentration: 200 nM) | TEAD-luciferase reporter activity (compound concentration: 2 uM) | TEAD-luciferase reporter activity (compound concentration: 10 uM)
1 | O=C(O)c1[nH]c2cc(Cl)cc(Cl)c2c1/C=C1\CCN(c2ccccc2)C1=O | inactive: -0.608 | inactive: -0.672 | inactive: -0.149
2 | CC(N/C(=N\C#N)Nc1ccncc1)C(C)(C)C (stereo not drawn) [Pinacidil] | inactive: -0.515 |  | inactive: -0.441
3 | CC(N/C(=N\C#N)Nc1ccncc1)C(C)(C)C (stereo not drawn) [pinacidil] |  | inactive: 0.429 | 
4 | C[C@H](CCC(=O)NCCS(=O)(=O)O)[C@H]1CC[C@H]2[C@@H]3[C@H](O)C[C@@H]4C[C@H](O)CC[C@]4(C)[C@H]3C[C@H](O)[C@]12C | inactive: -0.687 |  | inactive: -1.54
5 | C[C@H](CCC(=O)NCCS(=O)(=O)O)[C@H]1CC[C@H]2[C@@H]3[C@H](O)C[C@@H]4C[C@H](O)CC[C@]4(C)[C@H]3C[C@H](O)[C@]12C [Taurocholic acid] |  | inactive: -1.92 | 
6 | CC[C@H](C)[C@H](NC(=O)[C@H](CCC(N)=O)NC(=O)[C@@H]1CCCN1C(=O)[C@H](CCCNC(=N)N)NC(=O)[C@@H]1CCCN1C(=O)[C@H](Cc1c[nH]c2ccccc12)NC(=O)[C@@H]1CCC(=O)N1)C(=O)N1CCC[C@H]1C(=O)N1CCC[C@H]1C(=O)O | inactive: -1.49 | inactive: -1.2 | inactive: -1.9
7 | CC(C)NC(=O)NC1CC2(CCN(Cc3ccc(O)cc3)CC2)Oc2ccccc21 (stereo not drawn) | inactive: 2.76 |  | inactive: 2.06
8 | CNCCC(Oc1ccccc1OC)c1ccccc1 (stereo not drawn) [Nisoxetine HCl] | inactive: -1.03 |  | inactive: -0.45
9 | CNCCC(Oc1ccccc1OC)c1ccccc1 (stereo not drawn) [Nisoxetine hydrochloride] |  | inactive: -1.34 | 
10 | CCN1CCN(C(=O)N[C@@H](C(=O)N[C@@H]2C(=O)N3C(C(=O)O)=C(CSc4nnnn4C)CS[C@H]23)c2ccc(O)cc2)C(=O)C1=O [cefoperazone] | inactive: -0.0777 | inactive: 0.921 | inactive: 2.53
11 | CCCCCC/C=C/C=C\CCCCCCCC(=O)O [(9Z,11E)-Octadecadienoic acid] | inactive: -1.13 | inactive: -1.98 | inactive: -0.602
12 | CC[C@H](c1ccc(O)cc1)[C@@H](CC)c1ccc(O)cc1 | inactive: 0.508 | inactive: -2.97 | inactive: -0.177
13 | COc1ccc(CC(=O)N2Cc3ccccc3CC23CCCN(C(=O)CN)C3)cc1 (stereo not drawn) | inactive: 0.58 |  | active: 54.4
14 | C#CCN/C(=N\C#N)NCCSCc1nc[nH]c1C | inactive: -1.01 | inactive: 0.839 | inactive: 2.38
15 | C#CCN(c1nc(-c2cc(C)c(OC)cc2Cl)c(C)s1)[C@@H](CC1CC1)c1ccc(C)c(F)c1 | inactive: 3.42 | inactive: -1.64 | inactive: -0.0219
16 | OC(CCCN1CCc2c(c3cc(F)ccc3n2-c2ccc(F)cc2)C1)c1ccc(F)cc1 (stereo not drawn) | inactive: -1.1 | inactive: 0.727 | inactive: -0.123
17 | COc1ccc(CC(=O)NCc2ccccc2-c2ccccc2C(=O)NCCc2cccnc2)cc1 | inactive: -1.34 | inactive: -0.649 | inactive: 0.838
18 | CCN(CC)CCOC(=O)C1(C2CCCCC2)CCCCC1 [Dicycloverine hydochloride] |  | inactive: 0.187 | 
19 | CCN(CC)CCOC(=O)C1(C2CCCCC2)CCCCC1 [Bentyl] | inactive: -1.95 |  | inactive: 2.54
20 | CC[C@@]1(O)C(=O)OCc2c1cc1n(c2=O)Cc2cc3c(CN(C)C)c(O)ccc3nc2-1 [topotecan TCS] |  | inactive: -1.81 | 
21 | CC[C@@]1(O)C(=O)OCc2c1cc1n(c2=O)Cc2cc3c(CN(C)C)c(O)ccc3nc2-1 [Topotecan Hydrochloride] | inactive: 0.0713 |  | inactive: -2.02
22 | CC(C)(C)/C=C/c1c(C#N)cc(O)c(O)c1C#N | inactive: -1.11 | inactive: -1.02 | inactive: -2.3
23 | CN(C)CCCOc1nn(Cc2ccccc2)c2ccccc12 [benzydamine flufenamate] | inactive: -0.32 | inactive: -0.382 | inactive: -0.98
24 | O=C(NCc1cccnc1)c1cccn2ccnc12 | active: 5.38 |  | inactive: -0.0219
25 | Cc1oc(-c2ccccc2)nc1CCOc1ccc(C[C@H](Nc2ccccc2C(=O)c2ccccc2)C(=O)O)cc1 [Farglitazar] | inactive: -0.163 | inactive: -0.326 | inactive: 0.317
26 | O=Cc1ccc(N2CCN(C(=O)N3CCCC3)CC2=O)cc1 | inactive: -0.121 |  | active: 5.65

Some of the entries above, reformatted:
Row,Compound,TEAD-luciferase reporter activity (compound concentration: 200 nM),TEAD-luciferase reporter activity (compound concentration: 2 uM),TEAD-luciferase reporter activity (compound concentration: 10 uM)
18,CCN(CC)CCOC(=O)C1(C2CCCCC2)CCCCC1 [Dicycloverine hydochloride],,inactive: 0.187,
19,CCN(CC)CCOC(=O)C1(C2CCCCC2)CCCCC1 [Bentyl],inactive: -1.95,,inactive: 2.54
20,CC[C@@]1(O)C(=O)OCc2c1cc1n(c2=O)Cc2cc3c(CN(C)C)c(O)ccc3nc2-1 [topotecan TCS],,inactive: -1.81,

Next part

Row | Compound | TEAD-luciferase reporter activity (compound concentration: 200 nM) | TEAD-luciferase reporter activity (compound concentration: 2 uM) | TEAD-luciferase reporter activity (compound concentration: 10 uM)
27 | CC(=O)[C@H]1CC[C@H]2[C@@H]3C=CC4=CC(=O)CC[C@@]4(C)[C@@H]3CC[C@]12C [dydrogesterone] |  | inactive: 0.059 | 
28 | CC(=O)[C@H]1CC[C@H]2[C@@H]3C=CC4=CC(=O)CC[C@@]4(C)[C@@H]3CC[C@]12C [dydrogesterone, Pantarhei] | inactive: 2.32 |  | inactive: 0.734
29 | COC(CN1CCN(CCC(O)c2ccccc2)CC1)c1ccccc1 (stereo not drawn) | inactive: 2.69 | inactive: -0.824 | inactive: 1.38
30 | CC(C)N(CCCCOCC(=O)NS(C)(=O)=O)c1cnc(-c2ccccc2)c(-c2ccccc2)n1 [Selexipag] | inactive: -1.47 | inactive: -1.9 | inactive: 1.78
31 | CO/N=C(\C(=O)N[C@@H]1C(=O)N2C(C(=O)O)=C(C[n+]3ccn4ncccc43)CS[C@H]12)c1nsc(N)n1 [Cefozopran] | inactive: -1.49 | inactive: 0.455 | inactive: -0.906
32 | CO/N=C(\C(=O)N[C@@H]1C(=O)N2C(C(=O)O)=C(C[n+]3ccn4ncccc43)CS[C@H]12)c1nsc(N)n1 [cefozopran] |  | inactive: 3.34 | 
33 | C[N+](C)([O-])CCNc1ccc(NCC[N+](C)(C)[O-])c2c1C(=O)c1c(O)ccc(O)c1C2=O [Banoxantrone] | inactive: 4.73 | inactive: -0.806 | inactive: 1.03
34 | O=C1CN2Cc3cc(N4CCCCC4)ccc3N=C2N1 | inactive: 1.04 | inactive: -0.476 | inactive: -0.505
35 | CCCCC(C)(C)[C@H](O)/C=C/[C@H]1[C@H](O)CC(=O)[C@@H]1C/C=C\CCCC(=O)O [16,16-dimethyl PGE2] |  | inactive: 0.358 | 
36 | CCCCC(C)(C)[C@H](O)/C=C/[C@H]1[C@H](O)CC(=O)[C@@H]1C/C=C\CCCC(=O)O | inactive: -1.3 |  | inactive: 1.64
37 | CCCCC(Oc1ccccc1CNc1cccc(/C=C/c2ccc3cc(Cl)ccc3n2)c1)C(=O)O (stereo not drawn) | inactive: -0.818 | inactive: -0.595 | inactive: 0.0205
38 | C=C[C@]1(C)C[C@@H](OC(=O)CSc2cccc(CO)c2)[C@]2(C)C(C)CCC3(CCC(=O)C32)[C@@H](C)[C@@H]1O (stereo partly drawn) | inactive: 1.3 | inactive: -0.874 | inactive: -0.252
39 | C[N+](C)(Cc1ccc(NC(=O)c2ccc(Cl)c(Cl)c2)cc1)C1CCOCC1 | inactive: -1.88 | inactive: -0.188 | inactive: -1.11
40 | Cc1c(C(C)OC(=O)CCC(=O)O)oc2ccc(C3=CC(=O)OC3)cc12 (stereo not drawn) | inactive: -0.769 | inactive: -0.652 | inactive: 1.05
41 | C[C@@H]1C[C@H]2[C@@H]3CCC4=CC(=O)C=C[C@]4(C)[C@@]3(F)[C@@H](O)C[C@]2(C)[C@@]1(O)C(=O)COC(=O)c1ccncc1 [Dexamethasone Isonicotinate CRS] | inactive: -0.203 | inactive: 0.376 | inactive: 0.242
42 | COc1ccc(Cl)c(-c2ccc(NC(=O)c3cnn(C)c3)nc2N)c1 | inactive: 0.532 | inactive: 2.74 | inactive: 1.36
43 | CC1(C)CC(=O)c2c(O)cc(OCC(=O)O)cc2O1 | inactive: -1.14 | inactive: -0.189 | inactive: -0.735
44 | O=C(O)COc1cccc(CN(Cc2ccc(-n3cccn3)cc2)S(=O)(=O)c2cccnc2)c1 [taprenepag] | inactive: -0.95 | inactive: 2.6 | inactive: 0.536
45 | CC(=O)N1CCC[C@H]1C(=O)N[C@@H](Cc1c[nH]cn1)C(=O)N[C@@H](CO)C(=O)N[C@@H](CS)C(=O)N[C@@H](CC(N)=O)C(N)=O | inactive: -0.557 | inactive: -1.39 | inactive: 4.38
46 | COc1ccc2c(c1)c(CC(=O)NO)c(C)n2C(=O)c1ccc(Cl)cc1 [oxametacin] | inactive: -0.628 | inactive: 0.911 | inactive: 2.85
47 | C=CS(=O)(=O)[O-] | inactive: -0.716 | inactive: -1.04 | inactive: 0.255
48 | CCCCCCCCCCCCCCCC(=O)O[C@@H]1[C@@H](O)[C@@H](O)[C@@H]([C@H](NC(=O)[C@@H]2C[C@@H](CCC)CN2C)[C@H](C)Cl)O[C@@H]1SC [Clindamycin palmitate HCl] |  | inactive: -0.709 | 
49 | CCCCCCCCCCCCCCCC(=O)O[C@@H]1[C@@H](O)[C@@H](O)[C@@H]([C@H](NC(=O)[C@@H]2C[C@@H](CCC)CN2C)[C@H](C)Cl)O[C@@H]1SC [Clindamycin Palmitate?HCl] | inactive: -1.25 |  | inactive: -1.25
50 | Cc1ccc(NS(=O)(=O)Cc2ccccc2)c(=O)n1CC(=O)NCC1CCN(C(=N)N)CC1 | inactive: -1.42 | inactive: -2.11 | inactive: 2.3
51 | COc1ccc2c(c1)C(C(=O)N(Cc1ccc(N(C)C)cc1)c1ccc(C(C)C)cc1)CCC2 (stereo not drawn) | inactive: -0.91 | inactive: 1.58 | inactive: -1.31
